Test results reported in patent EP0315079B1, “Drug carriers” (NIPPON SHINYAKU COMPANY, LIMITED, priority 1987, dated 1989).

System: carrageenin edema
Assay: Carrageenin edema inhibition (Test Example 2-5)
Assay type: in vivo, SD strain male rats
Conditions: i.v. 30 min after carrageenin, paw volume 5 hours after carrageenin, converted into Dexamethasone; test sample = Example 4 type carrier
Experimental: λ-Carrageenin (0.5%, 1 ml) was subcutaneously administered to SD strain male rats (weighing about 160 g) at one paw heel. Thirty minutes after, the test sample, the comparative sample and Dexamethasone phosphate were intravenously administered in the tail vein. For the control group, physiological saline was administered. A volume of the paw was measured prior to the administration of carrageenin and 5 hours after the administration in a conventional manner to determine an edema inhibition ratio.

Structure (SMILES): C[C@@H]1C[C@H]2[C@@H]3CCC4=CC(=O)C=C[C@]4(C)[C@@]3(F)[C@@H](O)C[C@]2(C)[C@@]1(O)C(=O)COP(=O)(O)O [Dexamethasone phosphate]
- ED ₅₀ (50% Edema Inhibition Dose): 0.023 mg/kg
